For this test, the target named is T1, IRF1 (human (endogenous in SK-Hep-1)) (UniProt P10914).
T1 sequence: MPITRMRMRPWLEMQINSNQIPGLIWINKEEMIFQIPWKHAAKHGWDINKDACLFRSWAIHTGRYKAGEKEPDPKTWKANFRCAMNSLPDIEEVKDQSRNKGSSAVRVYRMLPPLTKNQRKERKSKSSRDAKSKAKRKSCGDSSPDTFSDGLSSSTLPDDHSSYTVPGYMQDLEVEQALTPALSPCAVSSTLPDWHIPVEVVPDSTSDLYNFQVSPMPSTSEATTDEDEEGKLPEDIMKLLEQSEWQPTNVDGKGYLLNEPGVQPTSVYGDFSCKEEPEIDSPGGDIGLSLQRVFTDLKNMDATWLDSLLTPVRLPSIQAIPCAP
Briefly: co-IP.

By UniProt entry, the sequences of proteins in these tests, tags left out.
UniProt P12956: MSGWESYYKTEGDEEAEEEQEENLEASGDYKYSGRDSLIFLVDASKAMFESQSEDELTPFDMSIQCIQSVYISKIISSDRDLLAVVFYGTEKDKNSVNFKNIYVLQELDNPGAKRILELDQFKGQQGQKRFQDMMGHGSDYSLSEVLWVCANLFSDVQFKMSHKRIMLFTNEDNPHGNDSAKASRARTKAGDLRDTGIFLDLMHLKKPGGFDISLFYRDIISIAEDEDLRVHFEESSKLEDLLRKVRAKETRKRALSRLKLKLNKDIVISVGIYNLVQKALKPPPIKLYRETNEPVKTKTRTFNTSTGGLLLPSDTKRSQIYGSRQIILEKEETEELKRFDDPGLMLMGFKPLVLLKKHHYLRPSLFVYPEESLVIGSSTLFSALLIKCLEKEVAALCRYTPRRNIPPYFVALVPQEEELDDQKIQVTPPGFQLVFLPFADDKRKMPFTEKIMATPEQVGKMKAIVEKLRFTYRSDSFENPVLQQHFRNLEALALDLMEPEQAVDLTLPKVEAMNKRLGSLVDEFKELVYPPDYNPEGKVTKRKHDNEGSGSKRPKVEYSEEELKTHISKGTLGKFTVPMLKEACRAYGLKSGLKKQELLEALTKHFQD
UniProt P09874: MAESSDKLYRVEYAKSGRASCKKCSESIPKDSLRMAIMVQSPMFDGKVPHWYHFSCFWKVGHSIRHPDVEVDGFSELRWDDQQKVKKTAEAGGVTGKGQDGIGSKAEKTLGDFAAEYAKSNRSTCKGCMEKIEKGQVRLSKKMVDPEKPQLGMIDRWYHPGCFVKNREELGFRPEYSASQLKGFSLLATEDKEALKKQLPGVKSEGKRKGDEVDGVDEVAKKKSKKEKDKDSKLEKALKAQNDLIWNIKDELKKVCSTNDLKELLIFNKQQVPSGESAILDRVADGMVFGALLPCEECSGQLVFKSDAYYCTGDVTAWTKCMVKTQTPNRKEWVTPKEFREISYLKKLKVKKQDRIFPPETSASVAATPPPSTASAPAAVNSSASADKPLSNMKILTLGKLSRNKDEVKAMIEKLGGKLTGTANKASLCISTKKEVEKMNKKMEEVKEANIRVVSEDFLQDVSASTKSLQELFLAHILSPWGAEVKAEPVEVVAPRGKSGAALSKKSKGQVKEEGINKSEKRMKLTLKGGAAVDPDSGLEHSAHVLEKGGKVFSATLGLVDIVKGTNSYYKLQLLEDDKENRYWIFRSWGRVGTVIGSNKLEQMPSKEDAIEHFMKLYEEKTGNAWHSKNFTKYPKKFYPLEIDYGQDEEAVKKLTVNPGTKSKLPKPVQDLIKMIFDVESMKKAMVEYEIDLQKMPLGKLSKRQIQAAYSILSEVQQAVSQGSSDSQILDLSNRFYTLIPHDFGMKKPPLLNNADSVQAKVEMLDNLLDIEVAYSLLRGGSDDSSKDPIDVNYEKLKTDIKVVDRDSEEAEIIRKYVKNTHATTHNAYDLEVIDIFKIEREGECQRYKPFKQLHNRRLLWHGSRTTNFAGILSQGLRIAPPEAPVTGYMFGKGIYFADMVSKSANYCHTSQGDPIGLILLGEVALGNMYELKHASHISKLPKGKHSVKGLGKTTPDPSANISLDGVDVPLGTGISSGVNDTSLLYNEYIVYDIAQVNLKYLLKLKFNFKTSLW

These are yes or no findings as the source states them, for the method shown. In cells and extracts the contact can be indirect. Some results given as binding are weak or reduced against the parent protein; the word gives no strength.

Take Ku70 (from UniProt P12956 1-609): the binding entry is recorded as “binds”.
The entry for PARP1 (from UniProt P09874 1-1014) is “binds”.

(Values after paper PMC5136554.)
